No constants are given. Whether binding was seen depends on the method and setting. In cells and extracts the contact can be indirect. For some of these results: A result given as binding can be weak or reduced; the word gives no strength. For some of these results: Where a sequence is shown, tags or fusion partners need not be part of it.
Tests used:
RGS14-YFPC = target: T1, RGS14-YFPC (UniProt O08773); assay: split reporter; YFP bimolecular fluorescence complementation in HEK293T cells co-transfected with YFPN and YFPC fusions; epifluorescence microscopy 48 h after transfection, percent of fluorescent pixels
T1 sequence: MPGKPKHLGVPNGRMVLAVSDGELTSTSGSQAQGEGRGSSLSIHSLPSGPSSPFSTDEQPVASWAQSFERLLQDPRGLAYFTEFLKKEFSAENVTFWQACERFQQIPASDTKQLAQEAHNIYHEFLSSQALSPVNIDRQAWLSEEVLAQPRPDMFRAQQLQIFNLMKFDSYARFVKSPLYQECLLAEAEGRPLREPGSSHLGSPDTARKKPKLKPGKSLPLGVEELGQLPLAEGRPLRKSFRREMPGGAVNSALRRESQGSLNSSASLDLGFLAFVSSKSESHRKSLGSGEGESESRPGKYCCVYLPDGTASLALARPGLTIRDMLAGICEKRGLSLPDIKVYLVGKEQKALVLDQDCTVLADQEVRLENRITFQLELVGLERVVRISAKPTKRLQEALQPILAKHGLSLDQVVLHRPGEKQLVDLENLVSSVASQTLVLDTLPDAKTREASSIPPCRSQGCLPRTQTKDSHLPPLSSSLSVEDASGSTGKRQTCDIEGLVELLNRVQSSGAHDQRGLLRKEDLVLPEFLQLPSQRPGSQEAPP

By UniProt entry, the sequences of proteins in these tests, tags left out. Where a name states a change or a piece, a line headed by the entry shows the natural chain unless it says otherwise.
UniProt P10114: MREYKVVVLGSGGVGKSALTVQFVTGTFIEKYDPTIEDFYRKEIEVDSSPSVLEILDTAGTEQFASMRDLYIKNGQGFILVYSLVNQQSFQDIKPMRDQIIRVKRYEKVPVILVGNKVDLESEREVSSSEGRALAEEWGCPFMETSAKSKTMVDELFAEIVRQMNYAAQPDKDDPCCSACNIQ
UniProt P61225: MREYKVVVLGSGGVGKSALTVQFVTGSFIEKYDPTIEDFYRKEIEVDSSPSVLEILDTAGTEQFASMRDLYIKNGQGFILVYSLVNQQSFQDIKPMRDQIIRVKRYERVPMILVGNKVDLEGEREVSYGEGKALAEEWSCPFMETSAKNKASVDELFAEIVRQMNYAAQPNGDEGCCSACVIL
UniProt P61224: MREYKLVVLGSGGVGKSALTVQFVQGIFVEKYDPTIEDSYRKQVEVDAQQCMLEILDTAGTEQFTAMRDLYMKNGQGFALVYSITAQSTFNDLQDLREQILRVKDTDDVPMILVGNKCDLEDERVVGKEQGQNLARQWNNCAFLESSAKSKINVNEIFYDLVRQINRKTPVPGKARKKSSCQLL
UniProt P62834: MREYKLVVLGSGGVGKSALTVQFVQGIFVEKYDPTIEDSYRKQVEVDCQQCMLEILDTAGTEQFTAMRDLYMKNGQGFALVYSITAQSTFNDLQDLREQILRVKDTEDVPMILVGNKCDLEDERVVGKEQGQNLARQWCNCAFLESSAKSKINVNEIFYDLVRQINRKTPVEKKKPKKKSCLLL

[1] = target: T2, full-length myc-RGS14 (rat) (UniProt O08773); assay: co-IP; HEK293T cells co-transfected with myc-RGS14 and one partner; lysates immunoprecipitated with anti-myc overnight at 4°C, protein A/G agarose; buffers with 20 mM MgCl2; immunoblot
T2 sequence: T1 sequence

[2] = target: T3, GST-RGS14-His6 (full-length RGS14) (UniProt O08773); assay: pull-down; 500 pmol purified GST-fusion protein added to pre-cleared lysate of HEK293T cells transfected with the GTPase, overnight at 4°C; precipitated with glutathione agarose; 20 mM TRIS/HCl pH 7.5, 100 mM NaCl, 20 mM MgCl2, 1 mM EGTA, 1% Triton X-100; immunoblot; only the target purified
T3 sequence: T1 sequence

| Substance | binding (RGS14-YFPC) | binding [1] | binding [2] |
| --- | --- | --- | --- |
| YFPN alone (N-terminal fragment of Yellow Fluorescent Protein, amino acids 1-159) (domain or fragment) | no binding | – | – |
| untagged activated (GV) Rap2A (from UniProt P10114) | – | no binding | – |
| FLAG-tagged mutationally-activated (GV) Rap2B (from UniProt P61225) | – | no binding | binds |
| mutationally activated Rap1B (from UniProt P61224) | – | no binding | – |
| mutationally activated Rap1A (from UniProt P62834) | – | no binding | – |
| HA-tagged mutationally-activated (GV) Rap2A (from UniProt P10114) | – | – | binds |

Source: PMC2655719
